Laboratory results: article PMC6529437
Results are given in words; binding and its absence hold for the method and conditions named. Binding seen in cells or lysates may run through a third protein. Binding can be weak; no strength is given.

Chains of the proteins cited; added tags and fusions are not shown. Lines headed by an entry give the natural chain unless they say otherwise; changes in a name come on top.
UniProt P08050: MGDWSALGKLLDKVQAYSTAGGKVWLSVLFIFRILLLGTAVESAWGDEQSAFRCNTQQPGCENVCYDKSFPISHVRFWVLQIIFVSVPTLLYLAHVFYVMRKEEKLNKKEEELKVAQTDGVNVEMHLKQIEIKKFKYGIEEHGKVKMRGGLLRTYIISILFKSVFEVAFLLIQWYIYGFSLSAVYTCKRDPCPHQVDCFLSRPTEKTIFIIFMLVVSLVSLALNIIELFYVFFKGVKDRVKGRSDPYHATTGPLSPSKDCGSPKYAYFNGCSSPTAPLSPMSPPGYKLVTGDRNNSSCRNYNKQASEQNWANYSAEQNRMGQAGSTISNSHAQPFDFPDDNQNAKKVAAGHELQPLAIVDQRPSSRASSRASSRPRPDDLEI
UniProt A6IA08: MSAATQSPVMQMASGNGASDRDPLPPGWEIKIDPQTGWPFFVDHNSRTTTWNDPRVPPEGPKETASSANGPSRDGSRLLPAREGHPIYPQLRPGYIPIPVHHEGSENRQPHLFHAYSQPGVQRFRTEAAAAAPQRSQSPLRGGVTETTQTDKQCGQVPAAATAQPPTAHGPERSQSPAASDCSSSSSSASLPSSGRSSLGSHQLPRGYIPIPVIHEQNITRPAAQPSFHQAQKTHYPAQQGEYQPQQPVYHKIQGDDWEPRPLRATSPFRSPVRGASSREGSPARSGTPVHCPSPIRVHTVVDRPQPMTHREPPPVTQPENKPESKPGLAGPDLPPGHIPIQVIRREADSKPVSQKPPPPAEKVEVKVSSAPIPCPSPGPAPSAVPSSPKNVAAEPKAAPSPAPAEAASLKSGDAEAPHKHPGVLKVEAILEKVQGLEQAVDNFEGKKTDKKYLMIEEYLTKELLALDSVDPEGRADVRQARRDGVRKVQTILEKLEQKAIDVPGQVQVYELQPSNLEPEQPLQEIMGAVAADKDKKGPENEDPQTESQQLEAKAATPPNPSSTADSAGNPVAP

Target: connexin 43 (rat (endogenous in NRVCs)) (UniProt P08050)
Experiment: co-IP; NRVC lysate (20 mM Tris HCl pH 8, 137 mM NaCl, 10% glycerol, 1% Nonidet P-40, 2 mM EDTA) rotated with a specific antibody (against Cx43 or against BAG3) or normal rabbit serum for 4 hours at 4 °C, then protein A/G beads for 4 hours at 4 °C; Western blot of the immunocomplexes

binding: binds
Substance: Bcl2-associated athanogene 3 (from UniProt A6IA08)
